According to PubChem BioAssay (Tox21):
Several values for one entry are separate records, joined by “and”; a condition that tells them apart may be missing. Identical values can stand only once. This list was built around the results that the source calls inconclusive (neither active nor inactive); the mix of calls is not that of the screen. For some of these results: Potencies of inconclusive entries are doubtful fits and often do not repeat. Some compounds were tested as several samples or in several runs, with calls that do not always agree. Activity calls are given as the source filed them. Unless noted, calls come from the whole dose curve.

By UniProt entry, the sequences of proteins in these tests, tags left out. Where a name states a change or a piece, a line headed by the entry shows the natural chain unless it says otherwise.
UniProt P28223, whole entry, looked up: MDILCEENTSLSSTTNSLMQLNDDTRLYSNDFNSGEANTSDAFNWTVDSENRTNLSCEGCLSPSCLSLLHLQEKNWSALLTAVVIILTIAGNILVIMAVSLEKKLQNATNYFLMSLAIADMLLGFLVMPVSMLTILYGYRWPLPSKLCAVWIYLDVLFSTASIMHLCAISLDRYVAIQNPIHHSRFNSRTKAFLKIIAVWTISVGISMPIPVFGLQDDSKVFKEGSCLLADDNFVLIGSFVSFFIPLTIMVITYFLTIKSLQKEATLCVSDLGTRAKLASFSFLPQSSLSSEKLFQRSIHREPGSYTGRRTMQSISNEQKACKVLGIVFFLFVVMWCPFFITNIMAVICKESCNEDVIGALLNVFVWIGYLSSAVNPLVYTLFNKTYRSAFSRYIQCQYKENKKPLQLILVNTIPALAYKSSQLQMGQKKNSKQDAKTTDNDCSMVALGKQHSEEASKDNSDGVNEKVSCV
UniProt P11229: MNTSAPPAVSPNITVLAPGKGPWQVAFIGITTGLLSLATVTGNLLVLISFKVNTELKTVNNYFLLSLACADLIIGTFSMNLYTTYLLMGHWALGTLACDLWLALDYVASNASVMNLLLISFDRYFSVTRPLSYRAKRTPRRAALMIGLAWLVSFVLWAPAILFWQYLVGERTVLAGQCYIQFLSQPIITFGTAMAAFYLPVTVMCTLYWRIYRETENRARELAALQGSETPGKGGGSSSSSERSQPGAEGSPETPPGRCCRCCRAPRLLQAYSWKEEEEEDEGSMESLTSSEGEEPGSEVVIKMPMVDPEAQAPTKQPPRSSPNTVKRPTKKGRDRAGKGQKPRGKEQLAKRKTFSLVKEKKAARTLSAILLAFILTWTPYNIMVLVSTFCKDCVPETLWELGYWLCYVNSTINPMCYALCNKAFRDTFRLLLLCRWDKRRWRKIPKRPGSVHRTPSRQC
UniProt P14416, whole entry, looked up: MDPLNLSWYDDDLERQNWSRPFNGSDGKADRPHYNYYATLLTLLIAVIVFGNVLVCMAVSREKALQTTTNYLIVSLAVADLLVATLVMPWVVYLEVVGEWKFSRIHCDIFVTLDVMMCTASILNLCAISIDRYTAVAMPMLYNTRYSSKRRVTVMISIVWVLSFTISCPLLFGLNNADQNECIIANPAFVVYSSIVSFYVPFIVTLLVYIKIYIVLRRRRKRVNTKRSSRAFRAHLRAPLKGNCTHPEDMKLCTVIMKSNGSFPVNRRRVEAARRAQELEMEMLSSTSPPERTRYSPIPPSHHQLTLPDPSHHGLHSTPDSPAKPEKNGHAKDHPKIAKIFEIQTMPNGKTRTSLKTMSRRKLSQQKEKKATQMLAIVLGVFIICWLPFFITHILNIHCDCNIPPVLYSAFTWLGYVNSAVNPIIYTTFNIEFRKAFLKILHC

Tests used:
[1] = p53 small molecule agonists, cell-based qHTS assay with human liver microsomes (AID 1963577); details: HCT-116 p53RE-bla with human liver microsomes, ratio, 16 h; activation: at 66 µM (top of the series) unless noted
Method in brief: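 Compounds act here after metabolic activation: human liver microsomes and NADPH, both at 0.5 mg/mL final, were co-added to p53RE-bla cells. Incubation ran 16 h at 37 C, followed by LiveBLAzer detection.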

[2] = p53 small molecule agonists, cell-based qHTS assay (AID 1963582; active = well fitted activation curve with a large enough effect in the signal ratio in the repeat runs, not every such curve was filed as active; inconclusive = weak or mixed curves; the % refers to the signal ratio); details: HCT-116 p53RE-bla reporter, beta-lactamase FRET ratio, 16 h; activation: at 66 µM (top of the series) unless noted
Method in brief: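 Beta-lactamase reporter cells (p53RE-bla) treated with compounds for 16 h at 37 C; FRET substrate, 2 h, room temperature; fluorescence intensity.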

[3] = cAMP Responsive Elements (CRE) small molecule agonists, cell-based qHTS assay (AID 1963590); details: CRE-bla HEK293T, beta-lactamase FRET ratio, 3 h; activation: at 92.4 µM (top of the series) unless noted; for activation: % is set by controls: 0 for no effect and ±100 for the full control effect
Method in brief: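 Quantitative HTS for CRE agonists: HEK 293T CRE-bla cells, overnight plating, 3 h compound incubation at 37 C/5% CO2, then 2 h room-temperature LiveBLAzer B/G FRET substrate loading.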

[4] = cAMP Responsive Elements (CRE) small molecule antagonists, cell-based qHTS assay (AID 1963591; active = well fitted inhibition curve with a large enough effect in the signal ratio in the repeat runs, not every such curve was filed as active; inconclusive = weak or mixed curves, or effect the other way; the % refers to the signal ratio; for activity change, negative = inhibition: % is set by controls: 0 for no effect and ±100 for the full control effect); details: CRE-bla HEK293T, beta-lactamase FRET ratio; activity change, negative = inhibition: at 92.4 µM (top of the series) unless noted
Method in brief: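 Fluorescence intensity from cleaved LiveBLAzer B/G substrate (2 h, room temperature) quantified CRE-bla activity in HEK 293T cells exposed 3 h to compound with 0.25 uM final NKH477.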

[5] = molecular target: Beta-2 adrenergic receptor (Homo sapiens) (UniProt P07550); test: Adrenergic beta2 receptor (ADRB2) small molecule agonists, cell-based qHTS assay (AID 1963593); details: CHO-ADRB2 cells, cAMP HTRF, 30 min; activation: at 92.4 µM (top of the series) unless noted;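 for activation: CHO cells stably overexpressing human ADRB2; % is set by controls: 0 for no effect and ±100 for the full control effect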
Method in brief: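 CHO cells stably over-expressing ADRB2 were plated overnight at 37C, then dosed with compounds plus a stimulation mix containing 100uM IBMX and 25uM Ro-20-1724 for 0.5hr at room temperature. cAMP was measured by HTRF competition, 1hr.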

[6] = molecular target: 5-hydroxytryptamine receptor 2A (Homo sapiens) (UniProt P28223); test: 5-hydroxytryptamine receptor 2A (HTR2A) small molecule antagonists, cell-based qHTS assay (AID 1963586); note: nearly all actives have a fitted effect of over 45% in size
Method in brief: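 CHO cells stably expressing human HTR2A were plated for 18 h at 37 C, then loaded with calcium dye for 1 h. Compounds were preincubated 5 min at room temperature before DOI (4 nM solution) was added. Kinetic fluorescence was read for 3 min.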

[7] = molecular target: 5-hydroxytryptamine receptor 2A (Homo sapiens) (UniProt P28223); test: 5-hydroxytryptamine receptor 2A (HTR2A) small molecule agonists, cell-based qHTS assay (AID 1963587); note: nearly all actives have a fitted effect of over 30% in size
Method in brief: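 HTR2A-CHO cells, plated 18 h at 37 C/5% CO2, dye-loaded 1 h at 37 C; compounds in DMSO added by pin tool (agonist mode). Intracellular calcium flux read as kinetic fluorescence on FDSS over 2 min at 1 s intervals.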

[8] = molecular target: Muscarinic acetylcholine receptor M1 (Homo sapiens) (UniProt P11229); test: Cholinergic receptor muscarinic 1 (CHRM1) small molecule antagonists, cell-based qHTS assay (AID 1963588); note: nearly all actives have a fitted effect of over 40% in size; for activity, negative = inhibition: % is set by controls: 0 for no effect and ±100 for the full control effect
Method in brief: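 Compounds were tested at 15 concentrations in three independent runs. Dye-loaded CHRM1-CHO cells were exposed 5 min at room temperature before stimulation by acetylcholine added at 50nM. Intracellular calcium was read kinetically on FDSS for 3 min.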

[9] = molecular target: D(2) dopamine receptor (Homo sapiens) (UniProt P14416); test: Dopamine D2 receptor (DRD2) small molecule antagonists, cell-based qHTS assay (AID 1963595; active = well fitted inhibition curve with a large enough effect in the signal ratio in the repeat runs, with a control signal flat; inconclusive = weak or mixed curves, or effect the other way; the % refers to the signal ratio); details: HEK293-DRD2 cAMP HTRF antagonist mode; activity change, negative = inhibition: at 92.4 µM (top of the series) unless noted
Method in brief: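 In this cell-based antagonist screen, compounds act for 10 min at room temperature before a 30 min challenge with 12 nM quinpirole and 200 nM NKH477. cAMP is quantified by HTRF competition in DRD2-HEK293 cells containing 0.1 mM Ro20-1724.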

[10] = molecular target: Beta-2 adrenergic receptor (Homo sapiens) (UniProt P07550); test: Adrenergic beta2 receptor (ADRB2) small molecule antagonists, cell-based qHTS assay (AID 1963592); details: CHO-ADRB2 cells, isoproterenol-stimulated cAMP HTRF ratio, 0.5 h; activity change, negative = inhibition: at 92.4 µM (top of the series) unless noted; note: nearly all actives have a fitted effect of over 50% in size
Method in brief: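 Assay format: CHO-ADRB2 cells, 18-20hr seeding at 37C/5% CO2, then compound plus 1nM isoproterenol agonist mix for 0.5hr RT. Homogeneous time-resolved fluorescence cAMP detection after 1hr, expressed as 665/615 nm ratio.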

[11] = molecular target: D(2) dopamine receptor (Homo sapiens) (UniProt P14416); test: Dopamine D2 receptor (DRD2) small molecule agonists, cell-based qHTS assay (AID 1963594); details: HEK293-DRD2 cAMP HTRF, agonist mode, 30 min; activation: at 92.4 µM (top of the series) unless noted; note: nearly all actives have a fitted effect of over 35% in size
Method in brief: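 HEK293 cells stably expressing DRD2 were cultured 24 h at 37 C, then given Ro20-1724 (0.1 mM final) and compounds for 10 min at room temperature. NKH477 (200nM) was then added for 30 min. cAMP was read by HTRF.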
Potency is the fitted concentration of half-maximal effect.

O=C(O)COc1ccc2ccccc2c1
Potency [1]: inconclusive: 51.3 µM [fluorescent]
Potency [2]: inconclusive: 5.76 µM [rising, partial curve]
Potency [3]: inconclusive: 30.6 µM [rising, partial curve]
Potency [4]: inconclusive: 54.5 µM [fluorescent, partial curve, poor fit]
Potency [5]: inconclusive: 68.6 µM [inhibitor, single point]

Clc1ccc2n[nH]nc2c1
Potency [1]: active: 28.9 µM
Potency [2]: inconclusive: 28.9 µM [falling, partial curve]
Potency [3]: inactive
activity change, negative = inhibition [4]: inconclusive: -24.9%

NC(N)=S
Potency [1]: inconclusive: 45.8 µM [activator]
Potency [2]: inconclusive: 0.408 µM [falling, single point]
Potency [6]: active: 37.5 µM
Potency [7]: active: 54.9 µM
Potency [8]: inactive
Potency [5]: inactive

O=C(CCCN1CCC(O)(c2cccc(C(F)(F)F)c2)CC1)c1ccc(F)cc1
Potency [1]: inactive
Potency [2]: inactive
Potency [3]: inactive
activation [5]: inconclusive: -40.1% [at 42.5 µM]
Potency [9]: active: 0.0042 µM

CC(Cl)C(Cl)Cl (stereo not drawn)
Potency [1]: inactive
Potency [2]: inconclusive: 45 µM [activator, single point]
activation [5]: inconclusive: 20.1%

O=C(O)Cn1cnnn1
Potency [1]: inconclusive: 22.3 µM [fluorescent, partial curve]
Potency [2]: inconclusive: 1.12 µM [falling, single point]
Potency [5]: inactive

C=C[C@@]1(C)CC(=O)[C@]2(O)[C@@]3(C)[C@@H](O)CCC(C)(C)[C@@H]3[C@H](O)[C@H](OC(C)=O)[C@@]2(C)O1
Potency [1]: inactive
Potency [2]: inconclusive: 18.2 µM [rising, partial curve]
Potency [6]: inactive and inconclusive: 1.83 µM [inhibitor, partial curve, poor fit]
Potency [3]: active: 243 nM and active: 298 nM
Potency [4]: inconclusive: 68.6 µM [fluorescent, partial curve, poor fit] and inconclusive: 596 nM [activator, full curve]
Potency [10]: inconclusive: 0.9 nM [activator] and inconclusive: 53.1 nM [activator, full curve]
Potency [5]: active: 0.119 µM
activation [5]: inconclusive: 133%
Potency [11]: inconclusive: 0.596 µM [falling, partial curve, poor fit]

Fc1c(F)c(F)c(Br)c(F)c1F
Potency [1]: inactive
Potency [2]: inactive
Potency [5]: inconclusive: 2.73 µM [inhibitor]

CCCCCCCCCCCCCCCCCCCl
Potency [1]: inconclusive: 1.99 µM [activator, partial curve]
activation [2]: inactive: -3.59% [at 5.99 µM]
activity, negative = inhibition [6]: inactive: -6.54% [at 5.62 µM]
activity change, negative = inhibition [4]: inactive: -6.83% [at 8.39 µM]
activation [5]: inconclusive: 1.39% [at 8.39 µM]

CCCCC(CC)COC(=O)CCCCC(=O)OCC(CC)CCCC (stereo not drawn)
Potency [1]: inconclusive: 40.8 µM [fluorescent]
Potency [2]: inactive
Potency [4]: inactive
Potency [5]: inconclusive: 0.242 µM [inhibitor, single point]

O=C(OCCOCCOC(=O)c1ccccc1)c1ccccc1
activation [1]: inconclusive: 11.8%
Potency [2]: inactive
Potency [6]: inactive and active: 7.5 nM
Potency [8]: inconclusive: 1.67 µM [inhibitor, single point] and inconclusive: 47.2 µM [inhibitor, single point]
Potency [3]: inconclusive: 68.4 µM [rising, partial curve, poor fit]
Potency [5]: inconclusive: 5.43 µM [inhibitor, full curve, poor fit]
activation [5]: inconclusive: 2.07%
Potency [9]: inconclusive: 0.611 µM [inhibitor, single point]
activity change, negative = inhibition [9]: inconclusive: 10.6%

N=c1ccn2c(n1)O[C@H]1[C@H](O)[C@@H](CO)O[C@H]12
Potency [1]: inactive
Potency [2]: active: 1.45 µM
Potency [4]: inactive
activation [5]: inconclusive: 13.2%

C[C@@H]1C[C@H]2[C@@H]3C[C@H](F)C4=CC(=O)C(Cl)=C[C@]4(C)[C@@]3(F)[C@@H](O)C[C@]2(C)[C@@]1(O)C(=O)CO
activation [1]: inconclusive: 0.405% [at 30.3 µM]
Potency [2]: inactive
Potency [7]: inactive
Potency [3]: inactive
activation [5]: inconclusive: -2.22% [at 42.5 µM]

CC/C=C\CCOC(C)OCC (stereo not drawn)
Potency [1]: inconclusive: 37.5 µM [activator]
Potency [2]: inactive
Potency [3]: inactive
Potency [5]: inconclusive: 0.447 µM [inhibitor, single point]

CC1(C)[C@@H](OC(=O)CCC(=O)O)CC[C@]2(C)[C@H]3C(=O)C=C4[C@@H]5C[C@@](C)(C(=O)O)CC[C@]5(C)CC[C@@]4(C)[C@]3(C)CC[C@@H]12
Potency [1]: inconclusive: 12.6 µM [rising, partial curve, poor fit]
Potency [2]: inconclusive: 9.98 µM [rising, full curve]
Potency [10]: inactive
Potency [5]: inconclusive: 9.44 µM [inhibitor, partial curve, poor fit]
